The record followed here is publication PMC8519427.

Holding throughout (experiment): pull-down; MBP- or GST-tagged Stim1 or Orai1 fragments immobilised on amylose or glutathione resin, incubated with 20–50 nM α-SNAP in Ringer's buffer with 0.1% NP-40 and 2 mM imidazole, 1 hr at 4°C; washed thrice; Western blot for α-SNAP; both purified
Experiment [1] addresses MBP-tagged Orai1 1–103 (human).
Experiment [2] has as its target MBP-Orai1 272–292 (human).
The target of a further experiment is MBP-Orai1 1–47 (human).
The target in the next experiment is MBP-Orai1 48–103 (human).
In experiment [3] the target is MBP-Orai1 245–272 (human).

These are yes or no findings as the source states them, for the method shown. For some assays here: Binding can be weak; no strength is given. Tags and fused reporters may be left off the sequences shown.

B1: human α-SNAP with an Avitag and a C-terminal 6xHis tag (protein, UniProt P54920 1-295)
chain: MDNSGKEAEAMALLAEAERKVKNSQSFFSGLFGGSSKIEEACEIYARAANMFKMAKNWSAAGNAFCQAAQLHLQLQSKHDAATCFVDAGNAFKKADPQEAINCLMRAIEIYTDMGRFTIAAKHHISIAEIYETELVDIEKAIAHYEQSADYYKGEESNSSANKCLLKVAGYAALLEQYQKAIDIYEQVGTNAMDSPLLKYSAKDYFFKAALCHFCIDMLNAKLAVQKYEELFPAFSDSRECKLMKKLLEAHEEQNVDSYTESVKEYDSISRLDQWLTTMLLRIKKTIQGDEEDLR
modifications: biotin (in vitro biotinylated using BirA ligase; Avitag)
Take B1: the binding entry is given as “binds” in experiment [1]; “no binding (tested: 20–50 nM of α-SNAP)” in experiment [2]; “no binding (tested: 20–50 nM of α-SNAP)” in the experiment with MBP-Orai1 1–47 (human); “binds” in the experiment with MBP-Orai1 48–103 (human); “binds” in experiment [3].
